# Reference: PubChem BioAssay AID1259308 (NCATS, 2017)
# Aim: 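Genes whose loss raises luciferase production in HEK293 cells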 (primary screen)
# System: human HEK293 embryonic kidney cells stably expressing firefly luciferase (HEK-CMV-Luc2-Hygro)
# Reagent: single siRNA against human genes, 0.8 pmol siRNA per well
# Timing: 72 h
# Read-out: 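Luciferase light (ONE-Glo) measured on one replicate plate set and viability (CellTiter-Glo) on the other, scaled to a negative control siRNA, with robust z-scores and luciferase per cell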
# Scale: total luciferase, z-score and total luciferase, % of control: higher = more reporter protein produced; luciferase per cell, z-score: higher = more reporter output per viable cell; viable cells, % of control: higher = more viable cells
# Hit rule: 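An siRNA counts as active if its total luciferase robust z-score exceeds 3; genes with two or more such siRNAs out of three were retested with fresh siRNAs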
# Meaning of the calls: active = raised luciferase; inactive = no rise
# This is one part, drawn at random, of about 59,000 reagents tested. About 1,510 of all reagents (2.6%) count as active. 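Calls use total luciferase alone and ignore viability, so some active siRNAs may act by altering cell number.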 Reagents against one gene are numbered here.
"total luciferase, z-score","total luciferase, % of control","luciferase per cell, z-score","viable cells, % of control",outcome,gene knocked down,reagent
-0.346,75,-0.0518,85,inactive,VWF,1
0.456,91,0.242,95.4,inactive,VWF,2
-0.185,78.2,-0.0203,87.9,inactive,VWF,3
2.53,132,1.74,93.4,inactive,TMEM52,1
0.0278,82.4,-0.0998,94.6,inactive,TMEM52,2
1.52,112,0.894,99,inactive,TMEM52,3
1.73,116,1.39,90.1,inactive,DPYSL3,1
-0.858,64.8,-0.869,91,inactive,DPYSL3,2
-0.693,68.1,-0.492,86.6,inactive,DPYSL3,3
-1.42,53.6,-1.18,81.7,inactive,GPR42,1
0.115,84.2,-0.143,97.7,inactive,GPR42,2
0.0854,83.6,0.0743,91.6,inactive,GPR42,3
-0.683,68.3,-1.05,101,inactive,FITM2,1
1.89,119,1.02,102,inactive,FITM2,2
0.436,90.6,0.399,91.1,inactive,FITM2,3
-0.238,77.1,-0.657,102,inactive,CLIP3,1
-0.315,75.6,-0.474,95.8,inactive,CLIP3,2
-2.81,25.9,-1.25,40.2,inactive,CLIP3,3
-1.14,59.2,-1.92,110,inactive,CFAP47,1
-1.79,46.3,-2.11,90.1,inactive,CFAP47,2
-0.211,77.7,-0.446,97.6,inactive,CFAP47,3
2.42,130,2.05,84.7,inactive,CFAP47,4
-0.00612,81.8,0.553,79,inactive,CFAP47,5
0.778,97.4,0.248,102,inactive,CFAP47,6
-1.19,58.2,-0.867,81.7,inactive,CFAP47,7
-0.54,71.1,0.339,72.7,inactive,CFAP47,8
-1.32,55.7,-1.26,86.7,inactive,CFAP47,9
